System: IL-2 production
Experiment: Interleukin-2 assay (IL-2 production by ELISA after PHA/TPA stimulation)
Format: cell-based, human
Conditions: ratio of cell viability/IL-2 inhibition
Experimental: Jurkat E6-1 cell line (ATCC), a human leukemic T cell line or lymphocytes prepared from fresh human blood, are grown in complete culture medium consisting of RPMI-1640 (Mediatech) supplemented with 10% v/v fetal bovine serum (HyClone, Logen, Vermont), penicillin (100 units/mL), streptomycin ([…]), and 2mM L-glutamine (GIBCO, Grand Island, New York). The cells are grown to a concentration of between 1.2 to 1.8 X 10^6 cells/mL before use. The cells are then centrifuged at low speed and resuspended to a concentration of 1.25 X 10^6 cells/mL in fresh medium.
The compounds to be tested are dissolved in DMSO, and water is added to make a 50% DMSO/water solution. The compounds are then diluted in sterile water such that the DMSO concentrations are less then 0.05%. The cells at a concentration of 1.25 X 10^6 cells/mL are stimulated with phytohemagglutinin 10 µg/mL (PHA) and 10^-8 M phorbol ester (12-O-tetradecanoylphorbol 13-acetate: TPA), (Sigma, St. Louis, Missouri). The compounds are then added and the cells are plated in flat-bottom tissue culture plates (Falcon, Lincoln Park, New Jersey), with 250,000 cells/well. Plates are then incubated at 37°C in a 5% CO2 atmosphere.
After incubation (16-24 hours), the cells are assayed for IL-2 production and cell viability (MTT). IL-2 production is assayed utilizing a solid phase ELISA immunoassay, sold in kit form by R&D Systems, Inc., Minneapolis, Minnesota.

First: CC(C)C12OC1C1OC13C1(C)CCC4=C(COC4=O)C1CCC3(O)C2O (stereo not drawn) [Example 1, [5aR-(5aα,6α,6aα,7aα,7bβ,8aS*,8bα)]-3,3b,4,5,5a,6,6a,7a,7b,8b,9,10-dodecahydro-5a,6-dihydroxy-8b-methyl-6a-(1-methylethyl)-1H-bisoxireno[4b,5:6,7]phenanthro[1,2-c]furan-1-one]
Second: CC(C)[C@]12O[C@H]1[C@@H]1O[C@]13[C@]1(O[C@H]1C[C@H]1C4=C(CC[C@@]13C)C(=O)OC4)[C@@H]2O [Triptolide]
The MTT/IL-2 of the first is higher: 8 to 14 for the first, 2 to 4 for the second.

With “[1S-(1α,2β,3α,3aβ,4aR*,4bα,11aα)]-3-chloro-1,2,3,3a,4b,5,6,9,9b,10,11,11a-dodecahydro-1,2,11a-trihydroxy-4b-methyl-2-(1-methylethyl)-7H-oxireno[4b,5]phenanthro[1,2-c]furan-7-one [Example 2]” the MTT/IL-2 was 9.
